Measured values reported in the supplement of paper PMC12067093, “Discovery and optimisation of a covalent ligand for TRIM25 and its application to targeted protein ubiquitination” (Chemical Science, 2025).
Some of the results follow.

The chains behind the UniProt entries cited, without tags or fusion partners. Where a name states a change or a piece, a line headed by the entry shows the natural chain unless it says otherwise.
UniProt P78527, whole entry, looked up: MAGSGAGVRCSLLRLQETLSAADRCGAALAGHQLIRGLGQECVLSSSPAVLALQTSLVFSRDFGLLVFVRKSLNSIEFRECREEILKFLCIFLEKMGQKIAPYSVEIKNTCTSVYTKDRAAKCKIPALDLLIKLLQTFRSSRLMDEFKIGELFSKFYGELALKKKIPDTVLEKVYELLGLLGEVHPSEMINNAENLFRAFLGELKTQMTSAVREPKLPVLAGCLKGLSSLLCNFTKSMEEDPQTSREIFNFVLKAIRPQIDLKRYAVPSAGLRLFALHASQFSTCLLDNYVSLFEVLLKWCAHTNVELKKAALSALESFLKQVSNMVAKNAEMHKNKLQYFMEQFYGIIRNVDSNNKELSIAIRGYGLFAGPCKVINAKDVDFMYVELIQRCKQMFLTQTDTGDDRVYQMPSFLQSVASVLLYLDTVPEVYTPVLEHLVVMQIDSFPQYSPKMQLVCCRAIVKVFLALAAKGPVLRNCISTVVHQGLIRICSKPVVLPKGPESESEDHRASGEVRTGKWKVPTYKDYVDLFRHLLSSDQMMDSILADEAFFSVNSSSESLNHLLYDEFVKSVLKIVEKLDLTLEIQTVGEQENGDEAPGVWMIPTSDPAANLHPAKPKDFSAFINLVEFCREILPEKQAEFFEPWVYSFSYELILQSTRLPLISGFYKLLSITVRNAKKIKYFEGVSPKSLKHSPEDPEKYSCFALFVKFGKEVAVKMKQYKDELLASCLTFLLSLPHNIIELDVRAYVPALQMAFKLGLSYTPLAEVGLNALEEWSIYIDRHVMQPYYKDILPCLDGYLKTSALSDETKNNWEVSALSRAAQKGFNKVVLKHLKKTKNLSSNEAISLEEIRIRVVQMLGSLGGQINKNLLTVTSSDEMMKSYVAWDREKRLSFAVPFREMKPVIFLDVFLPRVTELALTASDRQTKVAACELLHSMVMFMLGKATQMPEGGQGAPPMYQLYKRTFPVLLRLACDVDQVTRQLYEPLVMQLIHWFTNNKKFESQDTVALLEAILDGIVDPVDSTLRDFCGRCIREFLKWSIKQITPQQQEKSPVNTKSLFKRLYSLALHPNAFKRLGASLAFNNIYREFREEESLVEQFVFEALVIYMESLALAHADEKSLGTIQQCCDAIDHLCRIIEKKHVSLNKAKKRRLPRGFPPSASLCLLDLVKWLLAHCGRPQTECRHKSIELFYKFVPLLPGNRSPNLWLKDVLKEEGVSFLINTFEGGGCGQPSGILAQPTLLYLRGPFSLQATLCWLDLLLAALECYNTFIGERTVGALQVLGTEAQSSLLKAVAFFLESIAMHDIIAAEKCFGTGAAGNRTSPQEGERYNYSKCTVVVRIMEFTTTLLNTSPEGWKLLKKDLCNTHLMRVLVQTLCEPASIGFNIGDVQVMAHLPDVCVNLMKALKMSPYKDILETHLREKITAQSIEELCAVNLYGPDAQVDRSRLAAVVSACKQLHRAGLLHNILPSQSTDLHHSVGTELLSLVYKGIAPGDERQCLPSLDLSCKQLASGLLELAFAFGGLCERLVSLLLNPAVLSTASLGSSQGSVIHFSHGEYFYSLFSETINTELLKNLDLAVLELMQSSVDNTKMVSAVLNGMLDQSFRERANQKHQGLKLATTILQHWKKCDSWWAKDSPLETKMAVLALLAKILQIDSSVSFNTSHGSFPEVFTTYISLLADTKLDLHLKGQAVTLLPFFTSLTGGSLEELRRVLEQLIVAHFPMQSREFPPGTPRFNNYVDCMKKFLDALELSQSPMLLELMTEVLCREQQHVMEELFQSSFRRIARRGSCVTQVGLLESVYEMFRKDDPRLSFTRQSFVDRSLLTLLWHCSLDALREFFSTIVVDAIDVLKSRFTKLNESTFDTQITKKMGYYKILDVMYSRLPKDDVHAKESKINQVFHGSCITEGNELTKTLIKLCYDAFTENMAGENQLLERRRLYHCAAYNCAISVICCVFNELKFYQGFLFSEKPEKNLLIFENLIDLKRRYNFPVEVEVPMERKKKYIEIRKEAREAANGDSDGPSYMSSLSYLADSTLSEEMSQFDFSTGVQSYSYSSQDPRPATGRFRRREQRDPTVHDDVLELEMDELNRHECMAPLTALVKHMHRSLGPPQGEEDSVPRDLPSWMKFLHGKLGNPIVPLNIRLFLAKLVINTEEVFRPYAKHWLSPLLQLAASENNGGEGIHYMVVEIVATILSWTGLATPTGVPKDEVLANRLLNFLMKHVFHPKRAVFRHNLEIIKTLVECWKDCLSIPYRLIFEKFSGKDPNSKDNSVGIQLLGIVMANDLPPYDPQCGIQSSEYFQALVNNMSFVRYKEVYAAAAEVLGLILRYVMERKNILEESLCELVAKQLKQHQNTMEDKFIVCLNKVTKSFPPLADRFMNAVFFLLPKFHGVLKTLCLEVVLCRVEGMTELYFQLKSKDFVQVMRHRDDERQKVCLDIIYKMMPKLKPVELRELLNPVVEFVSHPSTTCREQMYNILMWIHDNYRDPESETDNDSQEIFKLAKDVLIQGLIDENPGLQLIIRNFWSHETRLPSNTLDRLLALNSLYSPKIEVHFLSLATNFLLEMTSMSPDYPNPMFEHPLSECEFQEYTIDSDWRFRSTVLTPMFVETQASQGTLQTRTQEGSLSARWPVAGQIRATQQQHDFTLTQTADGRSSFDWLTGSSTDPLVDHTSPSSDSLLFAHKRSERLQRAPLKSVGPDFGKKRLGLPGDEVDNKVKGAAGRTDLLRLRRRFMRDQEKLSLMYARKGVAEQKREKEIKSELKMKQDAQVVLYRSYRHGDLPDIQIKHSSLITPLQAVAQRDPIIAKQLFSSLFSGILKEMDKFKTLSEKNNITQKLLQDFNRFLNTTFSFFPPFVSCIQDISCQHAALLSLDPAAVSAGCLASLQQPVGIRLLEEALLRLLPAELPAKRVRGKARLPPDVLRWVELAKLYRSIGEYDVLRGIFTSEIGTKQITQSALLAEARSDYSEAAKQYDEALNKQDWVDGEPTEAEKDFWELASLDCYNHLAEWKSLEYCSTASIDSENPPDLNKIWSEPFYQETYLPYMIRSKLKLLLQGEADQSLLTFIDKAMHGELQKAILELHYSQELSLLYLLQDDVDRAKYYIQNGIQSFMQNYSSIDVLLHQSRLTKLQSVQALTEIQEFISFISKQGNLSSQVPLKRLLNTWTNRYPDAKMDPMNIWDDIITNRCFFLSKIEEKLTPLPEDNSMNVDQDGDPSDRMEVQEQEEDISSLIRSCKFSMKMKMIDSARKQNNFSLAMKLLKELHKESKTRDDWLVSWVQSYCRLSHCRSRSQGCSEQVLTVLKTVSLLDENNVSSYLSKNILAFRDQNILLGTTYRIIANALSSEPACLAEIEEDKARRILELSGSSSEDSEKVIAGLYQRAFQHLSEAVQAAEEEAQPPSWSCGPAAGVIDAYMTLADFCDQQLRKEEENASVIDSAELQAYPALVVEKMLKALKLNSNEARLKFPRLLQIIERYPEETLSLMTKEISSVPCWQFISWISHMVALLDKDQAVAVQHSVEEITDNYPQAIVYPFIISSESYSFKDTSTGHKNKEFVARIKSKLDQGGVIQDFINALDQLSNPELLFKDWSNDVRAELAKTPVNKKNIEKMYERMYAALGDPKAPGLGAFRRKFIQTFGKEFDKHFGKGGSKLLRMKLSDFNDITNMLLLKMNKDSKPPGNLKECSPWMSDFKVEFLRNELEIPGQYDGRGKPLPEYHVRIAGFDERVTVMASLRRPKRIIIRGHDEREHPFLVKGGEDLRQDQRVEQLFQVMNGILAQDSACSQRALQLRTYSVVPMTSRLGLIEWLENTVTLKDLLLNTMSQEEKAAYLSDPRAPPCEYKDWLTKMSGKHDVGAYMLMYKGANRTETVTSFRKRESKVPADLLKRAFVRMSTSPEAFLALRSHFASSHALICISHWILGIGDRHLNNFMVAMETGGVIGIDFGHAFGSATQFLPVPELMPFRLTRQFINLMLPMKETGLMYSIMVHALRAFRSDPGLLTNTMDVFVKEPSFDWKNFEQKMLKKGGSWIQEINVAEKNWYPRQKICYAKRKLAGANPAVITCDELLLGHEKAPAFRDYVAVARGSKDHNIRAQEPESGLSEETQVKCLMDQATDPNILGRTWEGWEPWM
UniProt Q86TP1: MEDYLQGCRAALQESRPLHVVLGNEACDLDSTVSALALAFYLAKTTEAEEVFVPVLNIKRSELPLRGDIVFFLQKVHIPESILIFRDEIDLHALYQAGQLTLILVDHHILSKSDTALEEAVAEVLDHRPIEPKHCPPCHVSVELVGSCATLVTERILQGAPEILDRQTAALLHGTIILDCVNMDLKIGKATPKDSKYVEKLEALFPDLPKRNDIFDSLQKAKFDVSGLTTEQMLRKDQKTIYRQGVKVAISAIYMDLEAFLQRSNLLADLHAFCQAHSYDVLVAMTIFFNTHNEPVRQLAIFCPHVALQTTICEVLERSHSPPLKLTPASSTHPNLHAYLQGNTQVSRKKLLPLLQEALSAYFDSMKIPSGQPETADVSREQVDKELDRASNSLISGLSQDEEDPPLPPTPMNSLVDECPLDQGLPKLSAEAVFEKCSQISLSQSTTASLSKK
UniProt P10644, whole entry, looked up: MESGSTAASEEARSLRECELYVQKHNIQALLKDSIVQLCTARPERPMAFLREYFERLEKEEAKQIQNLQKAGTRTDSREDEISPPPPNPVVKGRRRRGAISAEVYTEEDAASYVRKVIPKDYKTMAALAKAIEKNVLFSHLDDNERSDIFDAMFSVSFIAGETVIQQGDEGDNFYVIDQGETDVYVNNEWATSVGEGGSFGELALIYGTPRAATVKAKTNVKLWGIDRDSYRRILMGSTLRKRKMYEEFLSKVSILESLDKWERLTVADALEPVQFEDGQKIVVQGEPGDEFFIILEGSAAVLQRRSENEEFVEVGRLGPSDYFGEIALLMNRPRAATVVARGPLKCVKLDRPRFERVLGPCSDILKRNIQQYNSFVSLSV
UniProt Q05655: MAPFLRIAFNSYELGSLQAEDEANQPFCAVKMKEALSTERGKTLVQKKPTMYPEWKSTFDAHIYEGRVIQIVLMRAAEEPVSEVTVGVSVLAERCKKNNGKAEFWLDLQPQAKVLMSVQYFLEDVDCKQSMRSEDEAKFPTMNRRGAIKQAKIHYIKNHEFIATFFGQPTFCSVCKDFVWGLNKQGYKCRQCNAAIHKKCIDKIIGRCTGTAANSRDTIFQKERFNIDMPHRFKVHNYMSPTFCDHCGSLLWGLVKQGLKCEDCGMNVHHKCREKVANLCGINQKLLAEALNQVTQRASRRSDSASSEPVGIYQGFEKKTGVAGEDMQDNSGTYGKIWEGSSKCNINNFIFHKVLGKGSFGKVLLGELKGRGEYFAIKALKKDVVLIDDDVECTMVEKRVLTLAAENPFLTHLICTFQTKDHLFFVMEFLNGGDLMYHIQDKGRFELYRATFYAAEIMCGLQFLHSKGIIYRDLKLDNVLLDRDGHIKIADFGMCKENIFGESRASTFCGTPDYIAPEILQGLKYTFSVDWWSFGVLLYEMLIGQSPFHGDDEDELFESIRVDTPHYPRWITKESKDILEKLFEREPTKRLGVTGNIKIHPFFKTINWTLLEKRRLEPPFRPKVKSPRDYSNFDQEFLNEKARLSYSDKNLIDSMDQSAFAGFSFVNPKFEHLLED
UniProt P41743, whole entry, looked up: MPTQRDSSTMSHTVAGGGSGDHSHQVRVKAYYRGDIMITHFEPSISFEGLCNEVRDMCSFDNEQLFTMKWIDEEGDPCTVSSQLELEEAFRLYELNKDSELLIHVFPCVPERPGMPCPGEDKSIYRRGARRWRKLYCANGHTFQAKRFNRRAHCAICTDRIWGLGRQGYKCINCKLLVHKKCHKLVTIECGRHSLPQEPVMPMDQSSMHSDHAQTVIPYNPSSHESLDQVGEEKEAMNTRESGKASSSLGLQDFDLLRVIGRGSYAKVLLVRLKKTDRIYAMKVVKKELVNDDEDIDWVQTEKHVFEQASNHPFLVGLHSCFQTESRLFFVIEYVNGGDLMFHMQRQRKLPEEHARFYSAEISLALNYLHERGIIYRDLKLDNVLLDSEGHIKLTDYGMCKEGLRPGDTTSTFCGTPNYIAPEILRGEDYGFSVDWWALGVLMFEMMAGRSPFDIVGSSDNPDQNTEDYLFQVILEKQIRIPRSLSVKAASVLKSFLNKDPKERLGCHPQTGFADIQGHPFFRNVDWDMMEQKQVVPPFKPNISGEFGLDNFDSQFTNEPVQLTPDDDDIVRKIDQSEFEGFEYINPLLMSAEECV
UniProt P60891: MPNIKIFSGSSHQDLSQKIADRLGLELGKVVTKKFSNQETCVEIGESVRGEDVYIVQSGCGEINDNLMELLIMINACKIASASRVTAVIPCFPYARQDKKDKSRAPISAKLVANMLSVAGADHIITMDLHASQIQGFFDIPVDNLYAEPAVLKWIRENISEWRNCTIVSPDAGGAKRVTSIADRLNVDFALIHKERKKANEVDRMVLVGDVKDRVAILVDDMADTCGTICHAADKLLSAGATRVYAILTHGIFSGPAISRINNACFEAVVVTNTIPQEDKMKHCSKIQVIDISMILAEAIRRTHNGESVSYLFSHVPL

Compound: CC1Cc2ccccc2N1C(=O)C1CCCN(C1)C(=O)CCl (mixture of isomers) [TRIM25 ligand 11 (diastereomer mixture)]
Test: probe-labelled cysteine peptide fold change vs DMSO (competition) (log2 fold change); higher = less target engagement (more negative = stronger competition)
Settings: THP-1, incubation time: 4 h
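Note: competitive chemoproteomic profiling in live THP-1 cells with an iodoacetamide desthiobiotin (IA-DTB) probe, comparing probe-labelled peptide intensities in compound-treated cells against DMSO-treated controls.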

Row | Target | probe-labelled cysteine peptide fold change (10 µM) | probe-labelled cysteine peptide fold change (50 µM)
1 | PRPF6_O94906_807_ALQECPNSGILWSEAIFLEAR (UniProt O94906) | 0.0338 | 0.255
2 | PREX1_Q8TCU6_1583_LGACQMVMCGTGMQR (UniProt Q8TCU6) | 0.0674 | -0.0805
3 | PRPF6_O94906_550_HTWMEDADSCVAHNALECAR (UniProt O94906) | 0.0964 | 0.101
4 | PRKCSH_P14314_77_DGSDEPGTAACPNGSFHCTNTGYK (UniProt P14314) | 0.111 | 0.0753
5 | PRKDC_P78527_3683_ECSPWMSDFK (UniProt P78527) | 0.0403 | -0.0803
6 | PRPF8_Q6P2Q9_2223_TIIITCSFTPGSCTLTAYK (UniProt Q6P2Q9) | 0.0406 | 0.404
7 | PRKDC_P78527_1127_SLGTIQQCCDAIDHLCR (UniProt P78527) | 0.0972 | -0.138
8 | PRKRA_O75569_54_NIPVYECER (UniProt O75569) | -0.0869 | -0.0232
9 | PRPF19_Q9UMS4_355_VTDETSGCSLTCAQFHPDGLIFGTGTMDSQIK (UniProt Q9UMS4) | -0.0399 | -0.0705
10 | PRPF4_O43172_299_DVNLASCAADGSVK (UniProt O43172) | -0.0227 | -0.0888
11 | PRKCB_P05771_151_CVMNVPSLCGTDHTER (UniProt P05771) | 0.0617 | -0.156
12 | PRKDC_P78527_4106_CLMDQATDPNILGR (UniProt P78527) | -0.0751 | -0.265
13 | PRUNE1_Q86TP1_180_QTAALLHGTIILDCVNMDLK (UniProt Q86TP1) | 0.326 | 0.166
14 | PRKRA_O75569_77_VTVGDITCTGEGTSKK (UniProt O75569) | -0.151 | -0.147
15 | PRPS2_P11908_165_NCIIVSPDAGGAKR (UniProt P11908) | -0.00324 | 0.104
16 | PRIM1_P49642_170_GVHCWVCDESVR (UniProt P49642) | 0.28 | 0.472
17 | PRMT1_Q99873_272_VEDLTFTSPFCLQVK (UniProt Q99873) | 0.262 | 0.192
18 | PRPF6_O94906_739_CPHSTPLWLLLSR (UniProt O94906) | 0.0353 | -0.143
19 | PRMT9_Q6P2P2_310_VIPASAVIFGMAVECAEIR (UniProt Q6P2P2) | 0.371 | -0.00639
20 | PRKDC_P78527_1127+1135_SLGTIQQCCDAIDHLCR (UniProt P78527) | -0.162 | -0.178
21 | PRKDC_P78527_1499+1507_QCLPSLDLSCK (UniProt P78527) | 0.0818 | -0.0983

Given tab-delimited: entries from further up
Row	Target	probe-labelled cysteine peptide fold change (10 µM)	probe-labelled cysteine peptide fold change (50 µM)
8	PRKRA_O75569_54_NIPVYECER (UniProt O75569)	-0.0869	-0.0232
9	PRPF19_Q9UMS4_355_VTDETSGCSLTCAQFHPDGLIFGTGTMDSQIK (UniProt Q9UMS4)	-0.0399	-0.0705

(continued)

Row | Target | probe-labelled cysteine peptide fold change (10 µM) | probe-labelled cysteine peptide fold change (50 µM)
22 | PRIM2_P49643_449_YFEMIHNVDDCGFSLNHPNQFFCESQR (UniProt P49643) | -0.206 | -0.135
23 | PRKDC_P78527_3293_SQGCSEQVLTVLK (UniProt P78527) | 0.0201 | 0.00989
24 | PRKAB1_Q9Y478_223_DTGISCDPALLPEPNHVMLNHLYALSIK (UniProt Q9Y478) | -0.132 | -0.0459
25 | PRMT3_O60678_67_LFTSAEETFSHCK (UniProt O60678) | 0.0629 | 0.0643
26 | PRKCB_P05771_586_LGCGPEGER (UniProt P05771) | 0.0634 | 0.0851
27 | PRKCB_P05771_67_QGFQCQVCCFVVHK (UniProt P05771) | 0.153 | 0.0649
28 | PRR3_P79522_161_SDRPVCR (UniProt P79522) | 0.0127 | -0.141
29 | PRTN3_P24158_56_GNPGSHFCGGTLIHPSFVLTAAHCLR (UniProt P24158) | -0.0261 | -0.123
30 | PRKAR1A_P10644_39_DSIVQLCTARPER (UniProt P10644) | -0.11 | -0.000615
31 | PRKCD_Q05655_247_VHNYMSPTFCDHCGSLLWGLVK (UniProt Q05655) | -0.0855 | -0.16
32 | PRRC2B_Q5JSZ5_819_AQADFDSCISSQR (UniProt Q5JSZ5) | -0.0855 | -0.0653
33 | PRR12_Q9ULL5_112_FVPLTSICFPDSLLQDEER (UniProt Q9ULL5) | -0.151 | 0.122
34 | PRPF19_Q9UMS4_230_QVASHVGLHSASIPGILALDLCPSDTNK (UniProt Q9UMS4) | -0.148 | -0.187
35 | PRKAR1A_P10644_18_ECELYVQK (UniProt P10644) | -0.0536 | -0.116
36 | PRKDC_P78527_2342_NILEESLCELVAK (UniProt P78527) | 0.125 | 0.107
37 | PRKD3_O94806_204_IPNNCSGVR (UniProt O94806) | 0.0623 | 0.248
38 | PRKCI_P41743_507_LGCHPQTGFADIQGHPFFR (UniProt P41743) | -0.0123 | 0.0437
39 | PRMT1_Q99873_360+364_GQLCELSCSTDYR (UniProt Q99873) | 0.0885 | 0.191
40 | PRPF3_O43395_651_QCPTENMAR (UniProt O43395) | -0.219 | -0.185
41 | PREX1_Q8TCU6_1221_LHGCLEHLFNQVDSINALLK (UniProt Q8TCU6) | 0.11 | 0.0646
42 | PRKCD_Q05655_393_DVVLIDDDVECTMVEKR (UniProt Q05655) | -0.374 | -0.174

Row | Target | probe-labelled cysteine peptide fold change (10 µM) | probe-labelled cysteine peptide fold change (50 µM)
43 | PRKDC_P78527_1135_SLGTIQQCCDAIDHLCR (UniProt P78527) | 0.101 | 0.0684
44 | PREX1_Q8TCU6_52_LCVLNEILGTER (UniProt Q8TCU6) | 0.189 | 0.308
45 | PRKCB_P05771_70+71_QGFQCQVCCFVVHK (UniProt P05771) | 0.161 | 0.246
46 | PRMT5_O14744_518_LHNFHQLSAPQPCFTFSHPNRDPMIDNNR (UniProt O14744) | 0.0044 | -0.0979
47 | PRKD2_Q9BZL6_169_CDGCGLNYHK (UniProt Q9BZL6) | -0.0537 | 0.065
48 | PRPF8_Q6P2Q9_2116_FICISDLR (UniProt Q6P2Q9) | 0.0375 | 0.149
49 | PRG2_P13727_201_GGHCVALCTR (UniProt P13727) | 0.143 | 0.119
50 | PRKCD_Q05655_172_NHEFIATFFGQPTFCSVCK (UniProt Q05655) | -0.042 | 0.0379
51 | PREX1_Q8TCU6_234_TVCSNINETK (UniProt Q8TCU6) | 0.00592 | 0.0556
52 | PRKCB_P05771_132_CDTCMMNVHK (UniProt P05771) | -0.0421 | -0.0709
53 | PREX1_Q8TCU6_572_EEAVALGVGLCNNGFMHHVLEK (UniProt Q8TCU6) | 0.0907 | -0.0123
54 | PRKCI_P41743_137_LYCANGHTFQAK (UniProt P41743) | 0.129 | 0.201
55 | PRKDC_P78527_3837_APPCEYK (UniProt P78527) | 0.02 | -0.0417
56 | PRPF39_Q86UA1_450_TFEECVLGLAMVR (UniProt Q86UA1) | -0.0525 | -0.0403
57 | PRPS1_P60891_41_FSNQETCVEIGESVR (UniProt P60891) | 0.162 | -0.00081
58 | PRPF4_O43172_431_EIYGINFSPNGYHIATGSGDNTCK (UniProt O43172) | 0.135 | -0.00403
59 | PRKDC_P78527_478_NCISTVVHQGLIR (UniProt P78527) | 0.0438 | 0.143
60 | PRPS2_P11908_230_VAILVDDMADTCGTICHAADK (UniProt P11908) | 0.0135 | 0.175
61 | PRKDC_P78527_491_ICSKPVVLPK (UniProt P78527) | 0.0423 | 0.103
62 | PRPF4B_Q13523_962_DLLADLIGCQR (UniProt Q13523) | -0.0904 | -0.155
63 | PRMT5_O14744_344_CLLDRVPEEEK (UniProt O14744) | -0.0494 | -0.00756

Complete entries, quoted from the list. Values in the order: probe-labelled cysteine peptide fold change (10 µM)	probe-labelled cysteine peptide fold change (50 µM)
PRKCD_Q05655_172_NHEFIATFFGQPTFCSVCK (UniProt Q05655) is listed with -0.042	0.0379
PRKCI_P41743_137_LYCANGHTFQAK (UniProt P41743) is listed with 0.129	0.201
PRPF8_Q6P2Q9_2116_FICISDLR (UniProt Q6P2Q9) is listed with 0.0375	0.149
PRPS1_P60891_41_FSNQETCVEIGESVR (UniProt P60891) is listed with 0.162	-0.00081

Additional results follow.

Row | Target | probe-labelled cysteine peptide fold change (10 µM) | probe-labelled cysteine peptide fold change (50 µM)
64 | PREX1_Q8TCU6_968+972_QAPLEPHPLCGLDFCPTNCHINLMEVSYPK (UniProt Q8TCU6) | -0.15 | -0.341
65 | PROSER1_Q86XN7_139_APHAMISSCGTIPGNPYPK (UniProt Q86XN7) | -0.216 | -0.297
66 | PRKDC_P78527_1128_SLGTIQQCCDAIDHLCR (UniProt P78527) | 0.128 | 0.0804
67 | PRKCB_P05771_53_QPTFCSHCTDFIWGFGK (UniProt P05771) | 0.106 | 0.105
68 | PRMT5_O14744_518_LHNFHQLSAPQPCFTFSHPNR (UniProt O14744) | -0.101 | 0.0378
69 | PREX1_Q8TCU6_52_LCVLNEILGTERDYVGTLR (UniProt Q8TCU6) | -0.286 | -0.113
70 | PRKAR1A_P10644_362_VLGPCSDILKR (UniProt P10644) | -0.183 | -0.265
71 | PRKCSH_P14314_471_YEQGTGCWQGPNR (UniProt P14314) | 0.137 | -0.0823
72 | PRUNE1_Q86TP1_303+313_QLAIFCPHVALQTTICEVLER (UniProt Q86TP1) | 0.352 | -0.178
73 | PRMT7_Q9NVM4_639+640_RPGQSHAAVLWMEYHLTPECTLSTGLLEPADPEGGCCWNPHCK (UniProt Q9NVM4) | -0.113 | -0.0846
74 | PRPF4_O43172_441_CVYTIPAHQNLVTGVK (UniProt O43172) | 0.114 | 0.00531
75 | PRKDC_P78527_1364_DLCNTHLMR (UniProt P78527) | 0.157 | 0.159
76 | PRIM2_P49643_424_GTHYQVACQK (UniProt P49643) | -0.0111 | 0.00742
77 | PRKDC_P78527_2435_VCLDIIYK (UniProt P78527) | -0.05 | 0.00192
78 | PRRC2C_Q9Y520_177_ETNDDNYGPGPSLRPPNVACWR (UniProt Q9Y520) | -0.176 | -0.0927
79 | PRKDC_P78527_111_NTCTSVYTK (UniProt P78527) | -0.0678 | -0.0327
80 | PRPF4_O43172_441_RCVYTIPAHQNLVTGVK (UniProt O43172) | -0.103 | 0.0371
81 | PRKDC_P78527_1791_GSCVTQVGLLESVYEMFRK (UniProt P78527) | -0.179 | -0.152
82 | PRKCD_Q05655_261+264_CEDCGMNVHHK (UniProt Q05655) | -0.105 | -0.251
83 | PRPF19_Q9UMS4_114_QELSHALYQHDAACR (UniProt Q9UMS4) | -0.00523 | 0.0622
